Measured values from PubChem BioAssay AID248 (DTP/NCI, 2004).
The list does not hold the whole screen: it gathers tests that were run many times, whatever their T/C, doses with no T/C, and many T/C values between a quarter and a half above the control. Other doses and runs of a compound stand elsewhere. T/C: endpoint of the treated group in % of that of the vehicle group. Some doses have a count of surviving animals in place of a T/C: the source files T/C as zero there, which appears to mark a toxic dose or a test without result, not a measured value. Some doses without a T/C left all or most animals alive at the check, yet need not have been tolerated: survival well below the control is almost never listed, so the zero probably covers shortened survival too. Survivors were counted at the toxicity check, usually on the fifth day, unless a day is given; later deaths do not show. Schedule codes are those of the source, read here as Q, the interval in days (D) or hours (H), X, the number of doses. Some entries were tested several times; the results are listed from low to high. For survival time, this PubChem deposit counts one and a half times the control or more as active, and values a quarter to a half above the control carry no call in these data; other NCI protocols may use other cut-offs.

Tested on: L1210 leukemia ip in BDF1 mice, survival T/C
Assay: NCI In Vivo Anticancer Drug Screen. Data for tumor model L1210 Leukemia (intraperitoneal) in B6D2F1 (BDF1) mice
Settings: T/C endpoint: mean survival time, higher T/C = longer survival
[1] = dose: 400.0 mg/kg/injection, schedule: Q04DX003 (ip), vehicle: saline
[2] = dose: 200.0 mg/kg/injection, schedule: Q01DX001 (ip), vehicle: saline
[3] = dose: 400.0 mg/kg/injection, schedule: Q01DX001 (ip), vehicle: saline
[4] = dose: 400.0 mg/kg/injection, schedule: Q04DX002 (ip), vehicle: saline with Tween-80
[5] = dose: 100.0 mg/kg/injection, schedule: Q04DX003 (ip), vehicle: saline with Tween-80
[6] = dose: 400.0 mg/kg/injection, schedule: Q04DX003 (ip), vehicle: saline with Tween-80
[7] = dose: 200.0 mg/kg/injection, schedule: Q04DX003 (ip), vehicle: saline with Tween-80
[8] = dose: 400.0 mg/kg/injection, schedule: Q04DX002 (ip), vehicle: carboxymethylcellulose (CMC)
[9] = dose: 200.0 mg/kg/injection, schedule: Q01DX009 (ip), vehicle: saline
[10] = dose: 50.0 mg/kg/injection, schedule: Q01DX009 (ip), vehicle: Klucel (hydroxypropylcellulose) (HPC)
[11] = dose: 100.0 mg/kg/injection, schedule: Q01DX009 (ip), vehicle: Klucel (hydroxypropylcellulose) (HPC)
[12] = dose: 200.0 mg/kg/injection, schedule: Q01DX009 (ip), vehicle: Klucel (hydroxypropylcellulose) (HPC)
[13] = dose: 400.0 mg/kg/injection, schedule: Q04DX003 (ip), vehicle: Klucel (hydroxypropylcellulose) (HPC)
[14] = dose: 400.0 mg/kg/injection, schedule: Q04DX003 (ip), vehicle: water

With N#CN1CCOCC1 the survivor count (dose: 400.0 mg/kg/injection, schedule: Q01DX009 (ip), vehicle: saline) was 0 of 6 and the survivor count [1] was 0 of 6.

With O=S(=O)(F)c1ccc(CBr)cc1 the survivor count [2] was 2 of 6 and the survivor count [3] was 0 of 6.

For NC(=S)N/N=C\c1nccc2c(N)cccc12, the T/C (dose: 12.5 mg/kg/injection, schedule: Q01DX009 (ip), vehicle: saline with Tween-80) was 142 % of control, the T/C (dose: 25.0 mg/kg/injection, schedule: Q01DX009 (ip), vehicle: saline with Tween-80) was 127 % of control and the T/C (dose: 75.0 mg/kg/injection, schedule: Q01DX009 (ip), vehicle: saline with Tween-80) was 133 % of control. For the same molecule, the T/C (dose: 100.0 mg/kg/injection, schedule: Q04DX002 (ip), vehicle: saline with Tween-80) was 128 % of control, the T/C (dose: 200.0 mg/kg/injection, schedule: Q04DX002 (ip), vehicle: saline with Tween-80) was 128 % of control and the T/C [4] was 139 % of control.

N#C/C(=C\c1cc(Cl)cc(Cl)c1O)C(/C(C#N)=C/c1cc(Cl)cc(Cl)c1O)c1ccc2c(c1)OCO2 (centres undefined) was tested, and the survivor count [5] was 6 of 6 and the survivor count [6] was 5 of 6.

Cc1cc(C)c(S(=O)(=O)O)c(Cc2ccc3ccccc3c2)c1 was tested, and the survivor count [2] was 3 of 6 and the survivor count [3] was 0 of 6.

O=C(O)c1ccccc1C(=O)c1ccc(CBr)cc1 was tested, and the survivor count [5] was 0 of 6, the survivor count [7] was 0 of 6 and the survivor count [6] was 0 of 6.

With O=C(Nc1ccc(F)cc1)Nc1cccc(O)c1 the survivor count [8] was 6 of 6.

In the case of CC(=O)CC(C)=NCC(C)N=C(C)CC(C)=O (centres undefined), the survivor count (dose: 400.0 mg/kg/injection, schedule: Q01DX009 (ip), vehicle: saline with Tween-80) is reported as 6 of 6.

O=C(CCl)NCc1cnccn1 was tested, and the survivor count [9] was 1 of 6, the survivor count (dose: 300.0 mg/kg/injection, schedule: Q01DX009 (ip), vehicle: saline) was 0 of 6 and the survivor count [1] was 0 of 6.

For S=C([S][Sb]([c]1ccccc1)[c]1ccccc1)N(c1ccccc1)c1ccccc1, the survivor count (dose: 80.0 mg/kg/injection, schedule: Q01DX001 (ip), vehicle: other) was 0 of 6, the survivor count (dose: 100.0 mg/kg/injection, schedule: Q01DX001 (ip), vehicle: other) was 0 of 4 and the survivor count (dose: 200.0 mg/kg/injection, schedule: Q01DX001 (ip), vehicle: other) was 1 of 4. The survivor count (dose: 400.0 mg/kg/injection, schedule: Q01DX001 (ip), vehicle: other) was 0 of 4.

For Nc1nc(Br)c(Br)nc1C(=O)O, the T/C [10] was 127 % of control, the survivor count [11] was 3 of 6 and 3 of 3 and the survivor count [12] was 0 of 3. For the same molecule, the survivor count (dose: 200.0 mg/kg/injection, schedule: Q04DX002 (ip), vehicle: Klucel (hydroxypropylcellulose) (HPC)) was 5 of 6, the survivor count (dose: 200.0 mg/kg/injection, schedule: Q04DX003 (ip), vehicle: Klucel (hydroxypropylcellulose) (HPC)) was 6 of 6 and the survivor count (dose: 400.0 mg/kg/injection, schedule: Q01DX001 (ip), vehicle: Klucel (hydroxypropylcellulose) (HPC)) was 0 of 6. For the same molecule, the survivor count (dose: 400.0 mg/kg/injection, schedule: Q04DX002 (ip), vehicle: Klucel (hydroxypropylcellulose) (HPC)) was 0 of 6 and the survivor count [13] was 0 of 6.

In the case of NCc1ccc([N+](=O)[O-])cc1, the survivor count [3] is reported as 1 of 3 and the survivor count [1] is reported as 3 of 6.

For CC1C(C(=O)O)CC([N+](=O)[O-])C(Cl)C1[N+](=O)[O-] (centres undefined), the survivor count (dose: 100.0 mg/kg/injection, schedule: Q01DX009 (ip), vehicle: carboxymethylcellulose (CMC)) was 3 of 3, the survivor count (dose: 200.0 mg/kg/injection, schedule: Q01DX009 (ip), vehicle: carboxymethylcellulose (CMC)) was 0 of 3 and 0 of 6 and the survivor count [8] was 1 of 6 and 1 of 3.

For CNCCc1ccc2cc(OC)c(OC)cc2c1, the survivor count [7] was 2 of 6 and the survivor count [6] was 0 of 6.

For NC(=O)c1nc(C(F)(F)F)[nH]c1C(N)=O, the survivor count [14] was 3 of 6.

With CN(Cc1ccccc1)Cc1ccccc1 the survivor count [13] was 2 of 6.

With CC(=O)Oc1ccc2c(c1)C(=O)CCCCCC(=O)O2 the T/C [5] was 127 % of control.

For COc1cccc(C2N(Cc3ccc(N(CCCl)CCCl)cc3C)CCCN2Cc2ccc(N(CCCl)CCCl)cc2C)c1O, the survivor count (dose: 400.0 mg/kg/injection, schedule: Q01DX001 (ip), vehicle: carboxymethylcellulose (CMC)) was 2 of 4.

CCS(=O)(=O)c1ncc2cnccn12 was tested, and the survivor count (dose: 400.0 mg/kg/injection, schedule: Q01DX009 (ip), vehicle: water) was 0 of 6 and the survivor count [14] was 2 of 6.

In the case of Clc1c(Cl)c([O][Sn]([c]2ccccc2)([c]2ccccc2)[c]2ccccc2)c(Cl)c(Cl)c1[O][Sn]([c]1ccccc1)([c]1ccccc1)[c]1ccccc1, the survivor count (dose: 1.56 mg/kg/injection, schedule: Q01DX009 (ip), vehicle: Klucel (hydroxypropylcellulose) (HPC)) is reported as 3 of 3, the survivor count (dose: 6.25 mg/kg/injection, schedule: Q01DX009 (ip), vehicle: Klucel (hydroxypropylcellulose) (HPC)) is reported as 0 of 3 and the survivor count (dose: 12.5 mg/kg/injection, schedule: Q01DX009 (ip), vehicle: Klucel (hydroxypropylcellulose) (HPC)) is reported as 1 of 3. The survivor count (dose: 25.0 mg/kg/injection, schedule: Q01DX009 (ip), vehicle: Klucel (hydroxypropylcellulose) (HPC)) was 0 of 3, the survivor count [10] was 0 of 3 and the survivor count [11] was 0 of 3 and 0 of 6. For the same molecule, the survivor count [12] was 0 of 6 and the survivor count (dose: 400.0 mg/kg/injection, schedule: Q01DX009 (ip), vehicle: Klucel (hydroxypropylcellulose) (HPC)) was 0 of 6.

With CC(C)(C)C1=C(C(C)(C)C)CS(=O)(=O)C1 the survivor count (dose: 200.0 mg/kg/injection, schedule: Q01DX001 (ip), vehicle: saline with Tween-80) was 1 of 3 and the survivor count (dose: 400.0 mg/kg/injection, schedule: Q01DX001 (ip), vehicle: saline with Tween-80) was 0 of 3.

With CCN(CC)CCNCC(Cc1ccccc1)c1ccccc1 (centres undefined) the survivor count (dose: 400.0 mg/kg/injection, schedule: Q04DX002 (ip), vehicle: saline) was 0 of 3.

With Cc1cc(C)c(C(=O)c2ccccc2)c(=O)o1 the survivor count (dose: 80.0 mg/kg/injection, schedule: Q01DX001 (ip), vehicle: carboxymethylcellulose (CMC)) was 2 of 4, the survivor count (dose: 100.0 mg/kg/injection, schedule: Q01DX001 (ip), vehicle: carboxymethylcellulose (CMC)) was 0 of 4 and the survivor count (dose: 200.0 mg/kg/injection, schedule: Q01DX001 (ip), vehicle: carboxymethylcellulose (CMC)) was 0 of 4.

With COc1ccc(CC2(C#N)c3ccccc3C=CN2C(=O)c2ccccc2)c([N+](=O)[O-])c1OC (centres undefined) the survivor count [4] was 3 of 3.

With CCN(CC)C(=O)C1C=C2c3cccc4c3c(c(Br)n4C)CC2N(C)C1 (centres undefined) the survivor count [9] was 2 of 6 and the survivor count [1] was 4 of 6.

In the case of COC(=O)c1cn2c(c1C(=O)OC)CCC2, the survivor count (dose: 300.0 mg/kg/injection, schedule: Q01DX009 (ip), vehicle: other) is reported as 3 of 6.

COc1ccccc1NC(=S)N(C)C was tested, and the survivor count [6] was 0 of 6.

CC[P+](CC)(CC)c1ccccc1 was tested, and the survivor count [10] was 0 of 6, the survivor count (dose: 50.0 mg/kg/injection, schedule: Q04DX003 (ip), vehicle: saline) was 0 of 6 and the survivor count [11] was 0 of 6. The survivor count (dose: 100.0 mg/kg/injection, schedule: Q04DX003 (ip), vehicle: saline) was 0 of 6, the survivor count (dose: 200.0 mg/kg/injection, schedule: Q04DX003 (ip), vehicle: saline) was 0 of 6 and the survivor count [1] was 0 of 6.

For O=[N+]([O-])c1cccn2cnnc12, the survivor count (dose: 200.0 mg/kg/injection, schedule: Q01DX001 (ip), vehicle: acetone) was 0 of 6 and the survivor count (dose: 400.0 mg/kg/injection, schedule: Q01DX001 (ip), vehicle: acetone) was 0 of 6.
